Experiment [1] deals with T1, Foxp3 (transfected in 293T cells) (UniProt Q99JB6).
T1 sequence: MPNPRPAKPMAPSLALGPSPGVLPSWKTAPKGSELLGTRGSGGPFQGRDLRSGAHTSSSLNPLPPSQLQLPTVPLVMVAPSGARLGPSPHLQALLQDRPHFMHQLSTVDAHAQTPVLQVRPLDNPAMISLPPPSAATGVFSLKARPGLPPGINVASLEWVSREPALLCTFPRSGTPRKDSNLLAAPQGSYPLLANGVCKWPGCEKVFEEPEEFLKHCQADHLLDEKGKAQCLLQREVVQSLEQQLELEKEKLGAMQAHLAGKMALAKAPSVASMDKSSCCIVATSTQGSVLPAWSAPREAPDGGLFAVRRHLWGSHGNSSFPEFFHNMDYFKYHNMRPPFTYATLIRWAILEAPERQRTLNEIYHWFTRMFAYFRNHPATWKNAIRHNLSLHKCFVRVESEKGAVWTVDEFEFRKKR
The experiment is described as follows: co-IP; 293T cells transiently transfected with both Foxp3 and c-myc-tagged NEMO plasmids; cells with either plasmid alone as controls; two clones of anti-Foxp3 Ab (K-13, H190) used for IP; RIPA buffer.

By UniProt entry, the sequences of proteins in these tests, tags left out.
UniProt O88522: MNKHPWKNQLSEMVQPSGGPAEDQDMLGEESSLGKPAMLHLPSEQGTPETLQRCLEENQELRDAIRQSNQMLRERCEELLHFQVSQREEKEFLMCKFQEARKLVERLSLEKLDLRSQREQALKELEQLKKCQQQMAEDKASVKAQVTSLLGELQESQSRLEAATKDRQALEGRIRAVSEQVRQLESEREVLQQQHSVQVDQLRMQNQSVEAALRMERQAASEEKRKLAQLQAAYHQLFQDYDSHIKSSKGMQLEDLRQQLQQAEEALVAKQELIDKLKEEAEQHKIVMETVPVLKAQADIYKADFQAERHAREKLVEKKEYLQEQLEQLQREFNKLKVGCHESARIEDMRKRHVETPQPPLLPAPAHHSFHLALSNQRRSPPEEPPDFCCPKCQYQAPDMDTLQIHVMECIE

In experiment [2] the target is IKKγ/NEMO (mouse (endogenous in splenic CD4+ T cells)) (UniProt O88522). Kind of experiment: co-IP; lysates (RIPA buffer) of primary splenic CD4+ T cells from WT and Sf mice; pulled down by anti-NEMO Ab, blotted with anti-NEMO or anti-Foxp3 Ab; total lysate of Foxp3+ Tregs as positive control.

Results are given in words; binding and its absence hold for the method and conditions named. In cells and extracts the contact can be indirect. Some binding calls cover weakened binding; strength is not graded here.

Turning to “NEMO (tagged with c-myc) (from UniProt O88522 1-412)”, the binding entry in experiment [1] is recorded as “binds”.

B1: Foxp3 (protein, UniProt Q99JB6 1-417)
chain: MPNPRPAKPMAPSLALGPSPGVLPSWKTAPKGSELLGTRGSGGPFQGRDLRSGAHTSSSLNPLPPSQLQLPTVPLVMVAPSGARLGPSPHLQALLQDRPHFMHQLSTVDAHAQTPVLQVRPLDNPAMISLPPPSAATGVFSLKARPGLPPGINVASLEWVSREPALLCTFPRSGTPRKDSNLLAAPQGSYPLLANGVCKWPGCEKVFEEPEEFLKHCQADHLLDEKGKAQCLLQREVVQSLEQQLELEKEKLGAMQAHLAGKMALAKAPSVASMDKSSCCIVATSTQGSVLPAWSAPREAPDGGLFAVRRHLWGSHGNSSFPEFFHNMDYFKYHNMRPPFTYATLIRWAILEAPERQRTLNEIYHWFTRMFAYFRNHPATWKNAIRHNLSLHKCFVRVESEKGAVWTVDEFEFRKKR
For B1, the binding result in experiment [2] is “binds”.
